Our source for the binding signal values is article PMC7819943, “Rice protein-binding microarrays: a tool to detect cis-acting elements near promoter regions in rice”.

The chains behind the UniProt entries cited, without tags or fusion partners.
UniProt Q0JBA9, entry or part of it: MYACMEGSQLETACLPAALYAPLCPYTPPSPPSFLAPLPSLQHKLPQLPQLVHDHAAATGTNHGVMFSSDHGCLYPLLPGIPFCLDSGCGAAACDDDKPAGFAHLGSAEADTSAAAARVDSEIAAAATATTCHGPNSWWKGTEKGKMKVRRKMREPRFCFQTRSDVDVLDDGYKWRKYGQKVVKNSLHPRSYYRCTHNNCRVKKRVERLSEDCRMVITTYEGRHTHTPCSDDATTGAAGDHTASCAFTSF

The list shows a part of the results.

For the experiment, the target named is OsWRKY34 (Oryza sativa, UniProt Q0JBA9 1-250). Kind of experiment: protein-binding microarray (RPBM); PBS, 2% BSA, 51.3 ng/ul salmon testes DNA, 50 uM zinc acetate, 200 nM TF, 25 C, 1 h; high values mean tight binding. The settings on record: protein: recombinant; tags: N-terminal polyhistidine and DsRed monomer fusion (pET32a); label: CyDye5-dUTP incorporated in the synthesized complementary strand; 3' TTTTT single-stranded linker to array surface; dsDNA, one strand shown. The method in brief: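 An Axon 4000B scanner gave the binding signal as per-feature fluorescence intensity in arbitrary units. This followed washing of a custom Agilent array that had been incubated for 1 h at 25 °C with 200 nM protein in PBS, 2% BSA, salmon testes DNA and 50 µM zinc acetate. The proteins were transcription factors fused at the N-terminus to polyhistidine and DsRed, expressed in E. coli BL21-CodonPlus and purified on Ni–NTA.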
In the case of “TACTTCCCAACTTTTTCTTCAAACTTTCAACTTTTTTATCCGGAGTCACCTAGTGCAG”, the binding signal was 9960 fluorescence intensity (a.u.).
The figure for “CATCCCGGCATAGGCCTGTTTAGTCGATTGCGTTGTGTAACGGAGTCACCTAGTGCAG” is 8470 fluorescence intensity (a.u.).
The same measure for “GAATTTACGCTTTCTGGTCAGACTTCTGTTGTCCCACTGACGGAGTCACCTAGTGCAG”: 12100 fluorescence intensity (a.u.).
The same measure for “GGTTTCGTTCGCGAGGAGGAGAGATCTGGTTGGGGAGATGCGGAGTCACCTAGTGCAG”: 9660 fluorescence intensity (a.u.).
With “TTTTCCTTCTTATGACTCTTAAATATATATTTTATTTCATCGGAGTCACCTAGTGCAG”, the binding signal is 8740 fluorescence intensity (a.u.).
The same measure for “CCAGAACGGCCGGTCAACGGCACCGTTGACCGTATGAGGGCGGAGTCACCTAGTGCAG”: 52400 fluorescence intensity (a.u.); for “AAACTTCTAACTTTTCCGTCACATCGTTCCAATTTCAACCCGGAGTCACCTAGTGCAG”: 8840 fluorescence intensity (a.u.).
The figure for “TTTGCCATCATCATGCAGAAGGGGTCAATCATGCATAACCCGGAGTCACCTAGTGCAG” is 9150 fluorescence intensity (a.u.); for “GTGCTGCCTGTGTTTATATTAAGCTCTCTTCTTCTTCCTCCGGAGTCACCTAGTGCAG” it is 8310 fluorescence intensity (a.u.); for “CCGCACGCGCTCCCTTCACCCACCTCGATCGAGCTCCATGCGGAGTCACCTAGTGCAG” it is 8590 fluorescence intensity (a.u.).
As for “ATTCCCTATATCAAAATCGCACGGATGTTATCTCTTTCCACGGAGTCACCTAGTGCAG”, the binding signal is 8610 fluorescence intensity (a.u.).
With “GTCTTTTGGCTTCATTGTTTGGCTTATTCGTGGAAATATTCGGAGTCACCTAGTGCAG”, the binding signal was 11100 fluorescence intensity (a.u.).
Turning to “TTTTACATTTGCCTCTGCAATTTTGGTTTCCTTATCGATTCGGAGTCACCTAGTGCAG”, the binding signal is 9770 fluorescence intensity (a.u.).
With “CCACAACGGATAACACCTCACTTCCTCAACACTCAACACACGGAGTCACCTAGTGCAG”, the binding signal was 8660 fluorescence intensity (a.u.).
The figure for “CCGCAACTTCCTTTTGGCACTAAACTCGTCTTATCCGCATCGGAGTCACCTAGTGCAG” is 9350 fluorescence intensity (a.u.); for “CAAATTTAGCAGCCTTTCAGAGCTCAGAAGTTACCATTCCCGGAGTCACCTAGTGCAG” it is 8470 fluorescence intensity (a.u.).
Regarding “GTTGTTTTATTGATAGGTATAGGTATGAATCGAATTATTACGGAGTCACCTAGTGCAG”, the binding signal is 8390 fluorescence intensity (a.u.).
The figure for “GGAAATATTTTTAGGTTAAGGGGTGTGAAGTGTACTCTCTCGGAGTCACCTAGTGCAG” is 8870 fluorescence intensity (a.u.); for “TTCTAAAATATGTGGGTTTTTTTGTTGCAAAAGAATATTTCGGAGTCACCTAGTGCAG” it is 9060 fluorescence intensity (a.u.).
The same measure for “TTCCTCTCTCTCTGCTGTCAACTCCGGCCGACTCCGCCATCGGAGTCACCTAGTGCAG”: 8660 fluorescence intensity (a.u.); for “GCGTCTTCTTGTATTGGTTTTGTTTTACCCTGATTGCGTGCGGAGTCACCTAGTGCAG”: 11200 fluorescence intensity (a.u.).
The figure for “CGGTCTGCACAGAATTTTTTTCCAAGTTTGTGTCCTTTCTCGGAGTCACCTAGTGCAG” is 10100 fluorescence intensity (a.u.).
Regarding “CCCACCTCTCTCTCTCTCTCTCCCCTGGTCTCTCGCTCTCCGGAGTCACCTAGTGCAG”, the binding signal is 9180 fluorescence intensity (a.u.).
